Some entries share one result that the patent states for a list of compounds.
Target: T1, 11β-hydroxylase (Rattus norvegicus, UniProt P15393)
T1 construct: tissue BioreclamationlVT; host or cells: membranes (homogenate pellet) from Sprague-Dawley rat adrenal glands
T1 sequence (P15393 25-499): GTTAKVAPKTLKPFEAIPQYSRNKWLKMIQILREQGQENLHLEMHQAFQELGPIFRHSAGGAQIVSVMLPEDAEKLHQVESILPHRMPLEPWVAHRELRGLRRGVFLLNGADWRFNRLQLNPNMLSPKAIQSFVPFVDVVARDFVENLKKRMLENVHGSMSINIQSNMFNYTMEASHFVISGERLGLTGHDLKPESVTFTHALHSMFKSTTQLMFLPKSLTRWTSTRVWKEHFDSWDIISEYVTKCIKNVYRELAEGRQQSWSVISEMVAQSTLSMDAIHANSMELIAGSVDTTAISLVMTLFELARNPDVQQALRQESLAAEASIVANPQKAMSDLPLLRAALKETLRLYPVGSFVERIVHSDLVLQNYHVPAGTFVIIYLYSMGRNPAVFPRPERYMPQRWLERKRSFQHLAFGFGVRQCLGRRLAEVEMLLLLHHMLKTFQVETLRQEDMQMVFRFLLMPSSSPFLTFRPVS
Experiment: Displacement of [3H]-etomidate from adrenal membranes
Assay type: binding
Settings: 100 M drug, 2 nM [3H]-etomidate
Method: Briefly, 4 adrenal glands were thawed for each preparation, placed on a glass stand, cut into pieces, and then added to ice-cold preparation buffer (HEPES 10 mM, EDTA 1 mM, leupeptin 10 μg/mL, chymostatin 10 μg/mL, pepstatin A 10 μg/mL, aprotinin 2 μg/mL, polymethanesulfonyl fluoride 1 mM and ethanol 10 μg/mL). After homogenization, carboxylesterases were inactivated by incubating with 1 mM diisopropyl fluorophosphate (Sigma-Aldrich) for 60 min. The mixture was then centrifuged and the resulting pellet was washed twice. The final pellet was then re-suspended in buffer by manual homogenization, passed through a 23-gauge needle three times, aliquoted into 1 mL eppendorf tubes, and stored at −80° C. until used. The protein concentration in these samples was quantified using a Pierce BCA Protein Assay Kit (ThermoFisher, Rockford, Ill., USA). […]
After equilibration, the mixture was passed through a pre-soaked (with 0.5% polyethylenimine in water for 2 h) 25 mm GF/B glass fiber filter under suction, the filter was immediately washed twice with 5 mL of assay buffer. […] Liquiscint scintillation cocktail (National Diagnostics, Atlanta, Ga., USA) was added to the vial and the radioactivity in the vial quantified using a Packard Tri-Carb liquid scintillation counter (Meriden, Conn., USA). […]

SMILES | displacement of [3H]-etomidate binding at the highest concentration studied
CCOC(=O)c1cncn1[C@H](C)c1ccccc1 [etomidate, ethyl (R)-1-(1-phenylethyl)-1H-imidazole-5-carboxylate, reference compound] | ≥ 95%
CCOC(=O)c1cncn1[C@H](C)c1cc(OC)cc(OC)c1 [dimethoxy-etomidate, Ethyl (R)-1-(1-(3,5-dimethoxyphenyl)ethyl)-1H-imidazole-5-carboxylate] | ≥ 95%

From patent US11098017B2, “Compounds for treating disorders associated with abnormal steroidogenesis” (The General Hospital Corporation, priority 2017, dated 2021)
